Results published in the supplement of paper PMC10849652.
Some of the results follow.

By UniProt entry, the sequences of proteins in these tests, tags left out. Where a name states a change or a piece, a line headed by the entry shows the natural chain unless it says otherwise.
UniProt Q15631: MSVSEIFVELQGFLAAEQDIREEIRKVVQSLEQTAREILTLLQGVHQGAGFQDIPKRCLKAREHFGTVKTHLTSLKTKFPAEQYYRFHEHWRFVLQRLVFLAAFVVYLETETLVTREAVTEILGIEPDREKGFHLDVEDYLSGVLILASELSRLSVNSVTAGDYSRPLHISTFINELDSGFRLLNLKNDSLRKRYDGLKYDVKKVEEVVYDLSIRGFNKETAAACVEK
UniProt Q99816: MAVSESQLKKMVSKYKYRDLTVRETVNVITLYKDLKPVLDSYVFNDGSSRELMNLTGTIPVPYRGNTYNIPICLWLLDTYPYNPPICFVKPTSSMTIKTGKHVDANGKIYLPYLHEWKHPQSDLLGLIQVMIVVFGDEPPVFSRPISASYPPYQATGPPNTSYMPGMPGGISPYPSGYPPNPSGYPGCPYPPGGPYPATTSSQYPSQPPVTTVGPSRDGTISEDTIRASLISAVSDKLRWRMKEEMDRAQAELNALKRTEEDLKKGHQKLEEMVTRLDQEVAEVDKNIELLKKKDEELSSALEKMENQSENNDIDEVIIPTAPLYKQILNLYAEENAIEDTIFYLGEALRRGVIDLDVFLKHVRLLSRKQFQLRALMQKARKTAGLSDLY
UniProt P68366, whole entry, looked up: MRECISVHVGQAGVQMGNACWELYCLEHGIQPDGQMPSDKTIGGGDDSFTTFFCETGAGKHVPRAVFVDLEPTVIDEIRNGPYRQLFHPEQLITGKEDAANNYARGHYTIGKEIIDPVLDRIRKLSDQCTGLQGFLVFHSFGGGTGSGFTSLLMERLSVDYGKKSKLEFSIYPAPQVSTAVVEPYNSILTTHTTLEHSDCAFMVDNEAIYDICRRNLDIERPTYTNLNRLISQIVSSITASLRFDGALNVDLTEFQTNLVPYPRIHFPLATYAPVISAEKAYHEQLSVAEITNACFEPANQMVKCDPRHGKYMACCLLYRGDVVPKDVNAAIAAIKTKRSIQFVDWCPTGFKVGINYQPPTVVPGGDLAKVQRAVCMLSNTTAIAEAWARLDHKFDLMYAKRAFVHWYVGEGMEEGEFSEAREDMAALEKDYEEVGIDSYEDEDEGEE
UniProt P29597: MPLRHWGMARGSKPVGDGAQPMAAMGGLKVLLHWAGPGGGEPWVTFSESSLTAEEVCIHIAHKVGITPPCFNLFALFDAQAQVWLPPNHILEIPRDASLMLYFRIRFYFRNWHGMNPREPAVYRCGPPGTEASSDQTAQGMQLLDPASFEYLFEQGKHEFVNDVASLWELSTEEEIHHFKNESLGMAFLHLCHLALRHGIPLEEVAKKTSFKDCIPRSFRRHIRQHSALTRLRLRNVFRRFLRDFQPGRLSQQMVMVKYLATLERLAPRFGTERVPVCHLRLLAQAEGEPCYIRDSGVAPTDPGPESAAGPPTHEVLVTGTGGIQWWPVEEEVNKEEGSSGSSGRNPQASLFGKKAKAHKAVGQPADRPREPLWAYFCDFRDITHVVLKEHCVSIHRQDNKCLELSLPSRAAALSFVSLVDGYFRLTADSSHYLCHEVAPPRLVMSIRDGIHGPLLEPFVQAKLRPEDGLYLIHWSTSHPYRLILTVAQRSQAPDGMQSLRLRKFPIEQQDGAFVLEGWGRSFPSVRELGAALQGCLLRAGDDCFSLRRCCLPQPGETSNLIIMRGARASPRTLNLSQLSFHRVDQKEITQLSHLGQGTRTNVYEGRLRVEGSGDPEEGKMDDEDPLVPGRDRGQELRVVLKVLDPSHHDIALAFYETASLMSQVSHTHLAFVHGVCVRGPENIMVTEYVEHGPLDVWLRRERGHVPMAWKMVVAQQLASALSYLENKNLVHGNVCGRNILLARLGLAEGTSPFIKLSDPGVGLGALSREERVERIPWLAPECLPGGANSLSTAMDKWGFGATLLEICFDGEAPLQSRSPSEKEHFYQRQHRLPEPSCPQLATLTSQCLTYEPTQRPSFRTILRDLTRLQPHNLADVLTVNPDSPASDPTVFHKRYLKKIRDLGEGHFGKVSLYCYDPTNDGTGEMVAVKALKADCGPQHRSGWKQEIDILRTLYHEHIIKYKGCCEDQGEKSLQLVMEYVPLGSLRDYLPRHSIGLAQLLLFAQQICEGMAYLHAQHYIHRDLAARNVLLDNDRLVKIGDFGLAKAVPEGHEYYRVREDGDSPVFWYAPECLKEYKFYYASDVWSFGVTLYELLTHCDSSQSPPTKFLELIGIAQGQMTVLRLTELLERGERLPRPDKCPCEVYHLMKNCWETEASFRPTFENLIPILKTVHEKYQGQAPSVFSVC
UniProt Q6IPR3: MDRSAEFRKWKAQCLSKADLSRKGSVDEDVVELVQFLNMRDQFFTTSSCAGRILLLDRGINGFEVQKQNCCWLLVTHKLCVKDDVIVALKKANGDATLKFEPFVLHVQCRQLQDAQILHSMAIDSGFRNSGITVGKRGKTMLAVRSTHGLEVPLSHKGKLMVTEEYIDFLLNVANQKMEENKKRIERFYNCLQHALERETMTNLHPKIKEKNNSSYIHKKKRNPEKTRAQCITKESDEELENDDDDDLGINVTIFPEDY
UniProt Q6DKK2: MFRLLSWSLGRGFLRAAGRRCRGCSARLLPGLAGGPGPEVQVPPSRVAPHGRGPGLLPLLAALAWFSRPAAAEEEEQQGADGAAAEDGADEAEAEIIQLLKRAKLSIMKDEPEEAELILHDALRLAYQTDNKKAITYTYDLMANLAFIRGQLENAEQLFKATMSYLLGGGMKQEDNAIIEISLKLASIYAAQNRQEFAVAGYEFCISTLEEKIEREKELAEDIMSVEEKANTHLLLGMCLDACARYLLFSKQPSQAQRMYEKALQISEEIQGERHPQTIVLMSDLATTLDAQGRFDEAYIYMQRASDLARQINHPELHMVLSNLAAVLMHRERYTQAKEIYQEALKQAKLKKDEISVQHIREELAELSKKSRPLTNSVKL
UniProt Q9H6E5: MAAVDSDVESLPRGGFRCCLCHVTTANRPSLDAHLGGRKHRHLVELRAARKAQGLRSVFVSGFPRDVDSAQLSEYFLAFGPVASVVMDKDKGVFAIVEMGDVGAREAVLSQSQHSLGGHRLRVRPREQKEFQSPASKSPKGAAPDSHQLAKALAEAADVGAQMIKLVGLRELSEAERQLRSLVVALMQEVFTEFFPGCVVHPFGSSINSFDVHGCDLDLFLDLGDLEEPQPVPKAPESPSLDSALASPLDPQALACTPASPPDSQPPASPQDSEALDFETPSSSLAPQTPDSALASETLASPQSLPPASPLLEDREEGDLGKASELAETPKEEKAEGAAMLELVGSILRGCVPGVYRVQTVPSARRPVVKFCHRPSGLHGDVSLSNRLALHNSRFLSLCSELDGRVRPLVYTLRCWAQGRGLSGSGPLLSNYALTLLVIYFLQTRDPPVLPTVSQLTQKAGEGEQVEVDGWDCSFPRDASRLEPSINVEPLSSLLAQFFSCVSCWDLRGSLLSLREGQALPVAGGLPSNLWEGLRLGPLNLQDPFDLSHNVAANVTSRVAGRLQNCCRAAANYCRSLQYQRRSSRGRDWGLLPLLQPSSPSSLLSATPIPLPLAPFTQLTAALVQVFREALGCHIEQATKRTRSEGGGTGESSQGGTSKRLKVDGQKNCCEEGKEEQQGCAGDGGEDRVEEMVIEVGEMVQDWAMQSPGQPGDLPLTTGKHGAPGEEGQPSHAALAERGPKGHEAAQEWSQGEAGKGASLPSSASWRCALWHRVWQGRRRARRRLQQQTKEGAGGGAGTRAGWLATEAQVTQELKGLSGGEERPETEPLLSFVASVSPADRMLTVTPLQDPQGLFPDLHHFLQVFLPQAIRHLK
UniProt P0DPH7, whole entry, looked up: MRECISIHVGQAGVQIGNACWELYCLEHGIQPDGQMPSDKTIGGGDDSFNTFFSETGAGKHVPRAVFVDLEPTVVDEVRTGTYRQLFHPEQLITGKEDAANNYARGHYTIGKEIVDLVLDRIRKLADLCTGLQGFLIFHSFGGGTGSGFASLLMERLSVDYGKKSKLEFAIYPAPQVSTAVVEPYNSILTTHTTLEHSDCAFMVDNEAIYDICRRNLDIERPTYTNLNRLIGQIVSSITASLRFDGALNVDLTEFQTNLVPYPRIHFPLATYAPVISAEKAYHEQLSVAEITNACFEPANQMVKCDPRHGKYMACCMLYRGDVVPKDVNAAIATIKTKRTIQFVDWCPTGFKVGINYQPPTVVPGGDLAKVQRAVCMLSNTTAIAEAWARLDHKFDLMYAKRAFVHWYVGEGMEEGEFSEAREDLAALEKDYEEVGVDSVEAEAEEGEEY
UniProt P30536, whole entry, looked up: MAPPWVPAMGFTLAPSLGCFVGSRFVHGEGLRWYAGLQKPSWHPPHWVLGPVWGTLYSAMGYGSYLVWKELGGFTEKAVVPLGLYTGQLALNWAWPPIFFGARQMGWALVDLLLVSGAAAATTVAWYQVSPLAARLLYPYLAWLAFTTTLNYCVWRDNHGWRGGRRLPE
UniProt Q969T4: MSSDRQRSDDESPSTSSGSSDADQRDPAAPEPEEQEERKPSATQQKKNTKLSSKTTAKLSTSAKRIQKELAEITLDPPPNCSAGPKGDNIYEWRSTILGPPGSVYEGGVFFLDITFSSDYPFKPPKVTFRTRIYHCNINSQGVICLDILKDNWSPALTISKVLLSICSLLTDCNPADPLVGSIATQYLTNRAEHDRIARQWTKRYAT

What was measured:
Test in all cases: log2 fold change, soluble protein after heating vs DMSO (PISA); higher = thermal stabilisation; K562 cells, 10 uM, 30 min; active = over 0.2 and 3.5 SD of the protein, either way, in both replicates (recomputed)
[1] = compound: C1=CC=C(C=C1)[C@H](COC2=CC3=C(C=C2)NC(=O)N3)NC(=O)C4=CC=CN(C4=O)CC5=CC(=C(C=C5)F)F
Procedure, shortened: (§1)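 Quantification of soluble protein used TMTpro 16plex LC-MS/MS, with channel sums equalised. Samples were the supernatant after 21,000xg for 90 min of pooled aliquots from K562 cells (2×10^6 cells/mL) treated with 10 μM compound for 30 min, heated for 3 min over 48°C-58°C, and extracted in PBS with 0.5% NP-40 at 4°C. Values, from duplicates, describe thermal stability against control samples on a log2 fold-change scale.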

[2] = compound: CC1=C(SC2=C1C(=N[C@H](C3=NN=C(N32)C)CC(=O)N)C4=CC=C(C=C4)Cl)C
Procedure, shortened: as §1

[3] = compound: CC1=C2C(=CC=C1)N=C(N(C2=O)C3=CC=CC=C3C)CN4C=NC5=C(N=CN=C54)N
Procedure, shortened: as §1

[4] = compound: Cc1sc2c(c1C)C(c1ccc(Cl)cc1)=N[C@@H](CC(=O)OC(C)(C)C)c1nnc(C)n1-2
Procedure, shortened: as §1

[5] = compound: c1ccc([C@@H]2C[C@H]2NC2CCNCC2)cc1
Procedure, shortened: as §1

Measured: log2 fold change

TSN (UniProt Q15631)
inactive: [1] -0.005 | [2] 0.01 | [3] -0.024 | [4] -0.055 | [5] 0.002

TSG101 (UniProt Q99816)
inactive: [1] 0 | [2] 0.032 | [3] 0.074 | [4] -0.015 | [5] -0.016

TUBA4A (UniProt P68366)
inactive: [1] -0.02 | [2] 0.077 | [3] -0.03 | [4] -0.01 | [5] -0.076

TYK2 (UniProt P29597)
inactive: [1] 0.159

TYW3 (UniProt Q6IPR3)
inactive: [1] 0.067 | [2] -0.083 | [3] -0.091 | [4] 0.042 | [5] -0.022

TTC19 (UniProt Q6DKK2)
inactive: [1] -0.046 | [2] -0.013 | [3] 0.074 | [4] -0.005 | [5] -0.007

TUT1 (UniProt Q9H6E5)
inactive: [1] -0.064

TUBA3C (UniProt P0DPH7)
inactive: [1] -0.076 | [2] 0.112 | [3] -0.001 | [4] -0.025 | [5] -0.037

TSPO (UniProt P30536)
inactive: [1] -0.004 | [2] 0.062 | [3] 0.057 | [4] -0.085 | [5] 0.04

UBA6
inactive: [1] -0.018 | [2] 0 | [3] 0.06 | [4] 0.001 | [5] -0.002

UBE2E3 (UniProt Q969T4)
inactive: [1] -0.076 | [2] 0.119 | [3] 0.115 | [4] -0.088 | [5] -0.023
